PubChem BioAssay AID720505, Drosophila RNAi Screening Center | 2013
Purpose: 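Fly regulators or components of the CRAC channel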 (primary screen). Cell system: Drosophila S2R+ cells. Reagent: long dsRNA against Drosophila genes. Treatment: thapsigargin (2 µM) in calcium-free buffer to empty internal stores, then 2 mM calcium added back. Detection: 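Fluo-4 signal in 384-well plates read on a FLIPR after thapsigargin (2 µM, calcium-free) store depletion and 2 mM calcium add-back; unnormalised mean endpoint per well; screen run twice, selected wells retested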. Scale: calcium signal and retest calcium signal: higher = more calcium entry after store depletion. Call rule: 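Knock-downs counted as hits when calcium entry dropped relative to STIM1 positive and Rho1 negative controls present on each plate; roughly 1500 genes called, with reductions of differing size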. Calls: active = called as lowering calcium entry; inactive = not called.
The deposit covers about 20,000 reagents; shown is a random part of those with a known target gene and a result. Of all reagents, about 2,100 (10%) are marked active. 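Raw plate signals without normalisation; calls rest on control-based scores that were not deposited; replicate 2 separates called from uncalled poorly.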 Reagents against one gene are numbered here. A plus sign joins genes that one reagent is predicted to hit. No sequences are given here. Not stated in the record: the amount of reagent, the time to read-out.

MsrA (Methionine sulfoxide reductase A): calcium signal, replicate 1 = 96.7; calcium signal, replicate 2 = 165; Outcome = inactive
DCP1 (Decapping protein 1): calcium signal, replicate 1 = 138; calcium signal, replicate 2 = 135; Outcome = inactive
Crtc (CREB-regulated transcription coactivator) #1: calcium signal, replicate 1 = 88.7; calcium signal, replicate 2 = 151; Outcome = inactive
Crtc (CREB-regulated transcription coactivator) #2: calcium signal, replicate 1 = 85; calcium signal, replicate 2 = 171; Outcome = inactive
Nep2 (Neprilysin 2) #1: calcium signal, replicate 1 = 119; calcium signal, replicate 2 = 87; Outcome = inactive
Nep2 (Neprilysin 2) #2: calcium signal, replicate 1 = 193; calcium signal, replicate 2 = 129; Outcome = inactive
CG15099: calcium signal, replicate 1 = 116; calcium signal, replicate 2 = 158; Outcome = inactive
Pez: calcium signal, replicate 1 = 146; calcium signal, replicate 2 = 73.9; Outcome = inactive
PNUTS (Phosphatase 1 nuclear targeting subunit) #1: calcium signal, replicate 1 = 126; calcium signal, replicate 2 = 200; Outcome = inactive
PNUTS (Phosphatase 1 nuclear targeting subunit) #2: calcium signal, replicate 1 = 94.3; calcium signal, replicate 2 = 168; Outcome = inactive
Rack1 (Receptor of activated protein kinase C 1): calcium signal, replicate 1 = 135; calcium signal, replicate 2 = 111; Outcome = inactive
CG4375: calcium signal, replicate 1 = 132; calcium signal, replicate 2 = 155; Outcome = inactive
lwr (lesswright): calcium signal, replicate 1 = 99.7; calcium signal, replicate 2 = 158; Outcome = inactive
CG30062: calcium signal, replicate 1 = 118; calcium signal, replicate 2 = 129; Outcome = inactive
Taf8 (TBP-associated factor 8): calcium signal, replicate 1 = 96.6; calcium signal, replicate 2 = 123; Outcome = inactive
Cpsf160 (Cleavage and polyadenylation specificity factor 160): calcium signal, replicate 1 = 153; calcium signal, replicate 2 = 145; Outcome = inactive
Cyp40 (Cyclophilin 40): calcium signal, replicate 1 = 204; calcium signal, replicate 2 = 127; Outcome = inactive
CR31958 (pseudo) #1: calcium signal, replicate 1 = 168; calcium signal, replicate 2 = 98; Outcome = inactive
CR31958 (pseudo) #2: calcium signal, replicate 1 = 55.5; calcium signal, replicate 2 = 142; Outcome = active
mad2: calcium signal, replicate 1 = 119; calcium signal, replicate 2 = 96.2; Outcome = inactive
Spn42Da (Serpin 42Da): calcium signal, replicate 1 = 79.5; calcium signal, replicate 2 = 112; Outcome = inactive
CG11396: calcium signal, replicate 1 = 87.8; calcium signal, replicate 2 = 137; Outcome = inactive
mab-21: calcium signal, replicate 1 = 229; calcium signal, replicate 2 = 89.7; Outcome = inactive
HP1e (Heterochromatin Protein 1e): calcium signal, replicate 1 = 52.8; calcium signal, replicate 2 = 107; Outcome = active
moi + Tgs1: calcium signal, replicate 1 = 146; calcium signal, replicate 2 = 148; Outcome = inactive
CG32512 #1: calcium signal, replicate 1 = 173; calcium signal, replicate 2 = 94.6; retest calcium signal, replicate 1 = 6442; retest calcium signal, replicate 2 = 140; Outcome = inactive
CG32512 #2: calcium signal, replicate 1 = 154; calcium signal, replicate 2 = 105; Outcome = inactive
CG32512 #3: calcium signal, replicate 1 = 180; calcium signal, replicate 2 = 95.9; Outcome = inactive

In a second layout: 2 of the entries above
| Target gene | reagent no. | calcium signal, replicate 1 | calcium signal, replicate 2 | retest calcium signal, replicate 1 | retest calcium signal, replicate 2 | Outcome |
| --- | --- | --- | --- | --- | --- | --- |
| mad2 | 1 | 119 | 96.2 | – | – | inactive |
| Spn42Da (Serpin 42Da) | 1 | 79.5 | 112 | – | – | inactive |
